{
  "source": "paper doi:10.1101/2021.04.21.440759",
  "binders": {"B1": {"name": "Top3β, O95985 1-862 (enzyme)", "chain": "MKTVLMVAEKPSLAQSIAKILSRGSLSSHKGLNGACSVHEYTGTFAGQPVRFKMTSVCGHVMTLDFLGKYNKWDKVDPAELFSQAPTEKKEANPKLNMVKFLQVEGRGCDYIVLWLDCDKEGENICFEVLDAVLPVMNKAHGGEKTVFRARFSSITDTDICNAMACLGEPDHNEALSVDARQELDLRIGCAFTRFQTKYFQGKYGDLDSSLISFGPCQTPTLGFCVERHDKIQSFKPETYWVLQAKVNTDKDRSLLLDWDRVRVFDREIAQMFLNMTKLEKEAQVEATSRKEKAKQRPLALNTVEMLRVASSSLGMGPQHAMQTAERLYTQGYISYPRTETTHYPENFDLKGSLRQQANHPYWADTVKRLLAEGINRPRKGHDAGDHPPITPMKSATEAELGGDAWRLYEYITRHFIATVSHDCKYLQSTISFRIGPELFTCSGKTVLSPGFTEVMPWQSVPLEESLPTCQRGDAFPVGEVKMLEKQTNPPDYLTEAELITLMEKHGIGTDASIPVHINNICQRNYVTVESGRRLKPTNLGIVLVHGYYKIDAELVLPTIRSAVEKQLNLIAQGKADYRQVLGHTLDVFKRKFHYFVDSIAGMDELMEVSFSPLAATGKPLSRCGKCHRFMKYIQAKPSRLHCSHCDETYTLPQNGTIKLYKELRCPLDDFELVLWSSGSRGKSYPLCPYCYNHPPFRDMKKGMGCNECTHPSCQHSLSMLGIGQCVECESGVLVLDPTSGPKWKVACNKCNVVAHCFENAHRVRVSADTCSVCEAALLDVDFNKAKSPLPGDETQHMGCVFCDPVFQELVELKHAASCHPMHRGGPGRRQGRGRGRARRPPGKPNPRRPKDKMSALAAYFV"}},
  "biological_target": "DHX9 (human (endogenous in GM06990 and HEK293T)), Q08211",
  "assay": "co-IP",
  "details": "remark: other sources report otherwise",
  "note": "These are yes or no findings as the source states them, for the method shown. In cells and extracts the contact can be indirect. Some results given as binding are weak or reduced against the parent protein; the word gives no strength.",
  "data": [
    {"binder": "B1", "values": [
      {"measurement": "binding", "value": "binds"}
    ]}
  ]
}
